Screening data, single-dose tests

Chains of the proteins cited; added tags and fusions are not shown. Residues count along the entry.
UniProt A4I591, 1-473: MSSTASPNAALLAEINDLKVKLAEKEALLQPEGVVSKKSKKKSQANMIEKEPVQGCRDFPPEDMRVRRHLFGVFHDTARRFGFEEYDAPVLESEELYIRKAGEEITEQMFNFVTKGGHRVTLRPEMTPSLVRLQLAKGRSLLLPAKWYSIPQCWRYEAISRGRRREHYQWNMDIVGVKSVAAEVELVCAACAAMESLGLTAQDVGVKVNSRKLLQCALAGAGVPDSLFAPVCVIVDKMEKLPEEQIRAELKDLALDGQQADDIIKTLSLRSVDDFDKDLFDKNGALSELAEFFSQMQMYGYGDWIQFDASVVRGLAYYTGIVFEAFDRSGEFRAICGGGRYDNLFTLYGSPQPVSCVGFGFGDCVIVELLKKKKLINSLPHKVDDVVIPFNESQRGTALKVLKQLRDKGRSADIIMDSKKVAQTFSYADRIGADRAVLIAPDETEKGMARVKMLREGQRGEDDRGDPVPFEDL
UniProt Q4DA54, 1-478: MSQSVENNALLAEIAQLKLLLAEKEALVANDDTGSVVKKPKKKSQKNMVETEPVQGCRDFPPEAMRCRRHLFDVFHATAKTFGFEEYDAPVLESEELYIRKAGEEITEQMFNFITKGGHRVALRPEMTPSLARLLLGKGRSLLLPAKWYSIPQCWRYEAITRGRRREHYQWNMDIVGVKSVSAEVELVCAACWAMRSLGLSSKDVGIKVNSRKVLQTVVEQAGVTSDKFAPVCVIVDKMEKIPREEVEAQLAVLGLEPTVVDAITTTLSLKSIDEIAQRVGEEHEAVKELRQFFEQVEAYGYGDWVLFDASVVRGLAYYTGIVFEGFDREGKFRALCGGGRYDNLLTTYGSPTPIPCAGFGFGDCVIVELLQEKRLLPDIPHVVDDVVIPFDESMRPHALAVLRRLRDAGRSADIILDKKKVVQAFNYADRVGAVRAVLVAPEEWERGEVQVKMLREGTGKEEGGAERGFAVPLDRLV
UniProt Q8IDJ8, 1-583: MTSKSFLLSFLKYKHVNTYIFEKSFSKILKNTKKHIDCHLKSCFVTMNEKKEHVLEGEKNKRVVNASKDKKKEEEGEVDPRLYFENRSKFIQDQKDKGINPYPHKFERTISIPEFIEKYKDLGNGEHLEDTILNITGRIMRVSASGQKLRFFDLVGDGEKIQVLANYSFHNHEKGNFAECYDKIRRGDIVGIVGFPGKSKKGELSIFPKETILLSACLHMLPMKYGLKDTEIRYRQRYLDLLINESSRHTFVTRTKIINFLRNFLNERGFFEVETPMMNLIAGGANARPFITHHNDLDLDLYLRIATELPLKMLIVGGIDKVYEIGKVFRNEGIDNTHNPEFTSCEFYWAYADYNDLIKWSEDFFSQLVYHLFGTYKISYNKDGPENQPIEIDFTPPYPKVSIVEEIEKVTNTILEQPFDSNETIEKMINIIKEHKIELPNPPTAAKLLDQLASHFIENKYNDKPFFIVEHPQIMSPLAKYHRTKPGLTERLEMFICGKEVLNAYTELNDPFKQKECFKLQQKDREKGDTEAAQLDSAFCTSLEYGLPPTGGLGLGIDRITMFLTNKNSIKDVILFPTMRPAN

LiHisRS: 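Enzyme assay of histidyl-tRNA synthetase; the read-out is not stated. Target: Histidine-tRNA ligase, Leishmania infantum (UniProt A4I591). Concentration: 30 µM. Direction is inferred from retests: higher values go with stronger inhibition. The assay is labelled LdHisRS but filed under L. infantum. About 69,000 compounds were tested under these conditions; 0.6% (about 410) showed 50% or more at least once.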
TcHisRS: 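Enzyme assay of histidyl-tRNA synthetase; the read-out is not stated. Target: Histidine-tRNA ligase, Trypanosoma cruzi CL Brener (UniProt Q4DA54). Concentration: 30 µM. Direction is inferred from retests: higher values go with stronger inhibition. Size under these conditions: about 69,000 compounds, about 31 of them at 50% or above in at least one test.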
PfKRS1: 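Lysine-tRNA ligase, Plasmodium falciparum 3D7 (UniProt Q8IDJ8). Enzyme assay of the cytosolic lysyl-tRNA synthetase in 384-well plates, read by luminescence. Compounds at 30 µM. Direction is inferred from only a few compounds that gave an IC50; most scored high, so higher reads as stronger inhibition. Size under these conditions: about 69,000 compounds, about 49 of them at 50% or above in at least one test.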
Leishmania in macrophages: 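Cell assay of Leishmania donovani living inside macrophages; the read-out is not stated. Tested at 30 µM. The record gives no direction; compounds that gave an IC50 in retests scored well above the rest, so higher reads as stronger inhibition. Of about 69,000 compounds tested this way, about 1,000 (1.5%) reached 50% or more in at least one test.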

Results are given as percent effect. The controls that fix the scale are not given in the record; negative values are as filed. The compounds are a random part of those screened. Two or more numbers in one place are separate tests of the same structure; such repeats can differ widely. A dash means the value is not listed here; it may have been measured.

| structure | LiHisRS | TcHisRS | PfKRS1 | Leishmania in macrophages |
|---|---|---|---|---|
| `C[C@]1(O)CCN(Cc2c[nH]cn2)C[C@@H]1Oc1cccc(F)c1` | 10.14% | 3.297% | 3.126% | -5.228% & 22.13% |
| `CC1CN(C(=O)NCc2ccn(C)c2)CCN1CC(F)(F)F` (stereo not given) | -1.613% | 4.124% | -1.513% | 3.707% |
| `CN(C)S(=O)(=O)N1C[C@@H](Oc2ccccn2)[C@H]2OCCC[C@H]21` | 16.5% | 2.174% | 7.442% | - |
| `Cn1cc(C(=O)O)c(-c2ccc(F)cc2F)n1` | 1.333% | 6.358% | 9.9% | 18.15% |
| `CC(=O)N1CCN(C[C@H]2CC[C@@H](Cc3ccc4ncccc4c3)O2)CC1` | 4.918% | 6.438% | 1.374% | 32.42% |
| `O=C1CCCC2=C1C(c1ccc(Cl)cc1Cl)Nc1nonc1N2` (stereo not given) | 18.75% | 9.375% | 6.205% | 7.84% |
| `COc1cccc(OC)c1CN1CC(=O)N(c2ccc(C)cc2)CC1C` (stereo not given) | 24.44% | 16.67% | 0.3309% | 17.02% |
| `CC(C)c1nc2n(n1)CC(NCc1ncc(-c3ccccc3)o1)CC2` (stereo not given) | -221.3% | -1.887% | 0% | 22.38% |
| `Cc1occc(=O)c1OCc1noc(C(=O)NC2CCCC2)n1` | 13.04% | 2% | 1.437% | 15.56% |
| `CCc1ncc(C(=O)NCCN(C)S(C)(=O)=O)cn1` | 0% | 0.8% | 1.729% | -37.66% |
| `[H][C@@]12CN(C(=O)NC3CCCC3)C[C@]1(C(=O)O)CN(c1ccccn1)C2` | - | - | - | 13.4% |
| `CC(=O)Nc1nc(-c2ccc(C)c(C)c2)c[nH]1` | 5.085% | 3.415% | 1.512% | -3.102% |
| `Cc1onc(-c2ccncc2)c1C(=O)NC1CCCOC1` (stereo not given) | 11.19% | 4.52% | 1.893% | 24.56% |
| `O=C(O)C(F)(F)F.[H][C@]12CN(Cc3ccc(F)cc3)C[C@@]1([H])S(=O)(=O)CC[C@@H]2C(=O)NCC(C)C` | - | - | - | -1.027% |
| `Cn1cc(C(=O)CC2CCCN2C(=O)c2coc3ccccc23)cn1` (stereo not given) | 10.53% | 4.298% | 1.488% | 9.762% |
| `CC(=O)N1CCC2(CC1)CN(C)C(=O)C[C@H]2C(F)(F)F` | 17.09% | 6.135% | 2.77% | - |
| `CC(C)(O)CN1CCN(C(=O)c2ccc(Cl)c3cccnc23)CC1` | 28.7% | 6.745% | -1.559% | -0.1431% |
| `CC(C)c1ncc2c(n1)CN(Cc1nc(-c3cccs3)no1)CC2` | 27.69% | 2.682% | 4.385% | 27.3% |
| `CC(C)Cn1cncc1CNC1CCSC1` (stereo not given) | 17.58% | 7.831% | -0.2555% | 5.055% |
| `Clc1ccc2nc(N3CCC(NCCCC4CCOC4)CC3)sc2c1` (stereo not given) | 3.175% | 1.538% | 1.631% | 61.31% |
| `COC(=O)CCC(=O)N1CCC2(CN(Cc3ccc(Cl)cc3)C2)C1` | 13.89% | 2.804% | 5.927% | -0.7575% |
| `[H][C@@]12C[C@H](C(=O)Nc3ccccc3)[C@@]([H])(CN(Cc3cccnc3)C1)O2` | - | - | - | -38.61% |
| `CC1(NC(=O)CC2CCc3ccccc32)CCOCC1` (stereo not given) | 11.29% | 6.122% | 0.5867% | -9.1% |
| `Cc1ccc(C(=O)NS(=O)(=O)c2ccc3c(c2)OCCCO3)o1` | 5% | 5.882% | 1.731% | -4.739% |
| `CN(CC(F)(F)F)C(=O)CN1CCC(c2cc3ccccc3[nH]2)CC1` | 11.67% | 2.941% | 4.107% | -2.855% |
| `CNC(=O)CN1C(=O)CCC12CCCN(Cc1cccc(F)c1)C2` (stereo not given) | 21.36% | 5.825% | 8.443% | - |
| `Cc1ccc(F)c(C(=O)N2CCC(Nc3ccc(C)nn3)CC2)c1` | 11.3% | 3.38% | 0.6122% | 18.81% |
| `CCc1ccc(C(=O)N2CCN(CCS(C)(=O)=O)CC2)o1` | 7.2% | 1.141% | 3.869% | -8.316% |
| `O=C(c1ccncc1F)N1CCc2ncnc(C3CC3)c2CC1` | -5.882% | 2.956% | 1.927% | - |
| `O=C(Cn1cnc2ccccc2c1=O)Nc1cc(C2CC2)n[nH]1` | 21.05% | -2.521% | 4.099% | 28.51% |
| `CCc1ccc(-c2cn3c(C(=O)N[C@H](C(N)=O)[C@@H](C)O)csc3n2)cc1` | 15.71% | 4.255% | 2.129% | 14.97% |
| `COCCCNc1cc(C)nn2cnnc12` | 5.172% | 0.8696% | 3.571% | -14.95% |
| `O=c1c2cc3c(cc2nnn1Cc1cccc(F)c1)OCCO3` | 13.58% | -8.482% | 4.696% | 12.65% |
| `C=C(C)COc1cccc(C(=O)N(C)C(C)c2ccncn2)c1` (stereo not given) | 7.895% | 3.911% | 0.1586% | 10.03% |
| `Cc1noc(C)c1CN(C)C(=O)NC1CCCN(S(C)(=O)=O)C1` (stereo not given) | 12.04% | 4.985% | 1.64% | -2.106% |
| `CCOc1ccc(-c2c(C#N)c(N)nc3c2COCC3)cn1` | 21.74% | 1.98% | 6.136% | 29.31% |
| `CCC(C)N(Cc1ccncc1)Cc1ccc(-n2cccn2)cc1` (stereo not given) | 15.79% | 2.793% | 2.787% | 14.21% |

Some entries from above, unchanged:

With Cc1occc(=O)c1OCc1noc(C(=O)NC2CCCC2)n1 the screen gave LiHisRS: 13.04%; TcHisRS: 2%; PfKRS1: 1.437%; Leishmania in macrophages: 15.56%.
With C[C@]1(O)CCN(Cc2c[nH]cn2)C[C@@H]1Oc1cccc(F)c1 the screen gave LiHisRS: 10.14%; TcHisRS: 3.297%; PfKRS1: 3.126%; Leishmania in macrophages: -5.228% & 22.13%.
With CC(=O)N1CCN(C[C@H]2CC[C@@H](Cc3ccc4ncccc4c3)O2)CC1 the screen gave LiHisRS: 4.918%; TcHisRS: 6.438%; PfKRS1: 1.374%; Leishmania in macrophages: 32.42%.
With CCc1ccc(-c2cn3c(C(=O)N[C@H](C(N)=O)[C@@H](C)O)csc3n2)cc1 the screen gave LiHisRS: 15.71%; TcHisRS: 4.255%; PfKRS1: 2.129%; Leishmania in macrophages: 14.97%.

Measurements from “University of Dundee, Small-Polar-MMV Screening Library” (2021), ChEMBL document CHEMBL3988442.